The target in assay [1] is human insulin-like growth factor II (IGF-II) (human) (UniProt P01344). The assay can be described thus: ELISA after 9 days in human sera at 37 C. (ELISA stands for enzyme-linked immunosorbent assay.)
The target is the same in assay [2]. Briefly: told with the phosphorylation assay.
Assay [3] shares this target. The assay can be described thus: ELISA, IgG on coated antigen.
For assay [4] the target is unchanged. Briefly: told with the BJAB cell assay.
For assay [5] the target is unchanged. The assay can be described thus: size-exclusion chromatography, Superdex 75. A general note: Size exclusion chromatography separates by hydrodynamic size, large species first.
Assay [6] has the same target. Briefly: flow cytometry blocking assay: IgG pre-incubated with biotinylated IGF-II, mixture added to MCF-7 cells (IGF-IR and IR), streptavidin-PE; IgG concentration not given. For orientation: In flow cytometry, cells or beads pass a laser one at a time.
For assay [7] the target is unchanged. Briefly: flow cytometry blocking assay: 1 nM biotinylated IGF-II on MCF-7 cells (IGF-IR and IR) in the presence of the antibody, streptavidin-PE; antibody concentration not given.
A further assay concerns the target BSA (bovine) (UniProt P02769). The assay can be described thus: ELISA, 10 nM IgG on coated BSA, detected with HRP anti-human Fc antibody.
In assay [8] the target is human insulin-like growth factor II (IGF-II) (human) (UniProt P01344). Briefly: size-exclusion chromatography (Superdex G75) of IgG1 m610, IgG1 m708.5 and IGF-II mixed 1:1:2.
Assay [9] has as its target high affinity receptor for IgG on U937 cells (UniProt P12314). The assay can be described thus: flow cytometry on U937 cells (high affinity receptor for IgG), bound antibody detected with FITC goat F(ab')2 anti-human Fc; concentrations not given.
The target in assay [10] is human insulin-like growth factor II (IGF-II) (human) (UniProt P01344). Briefly: ELISA, 10 nM IgG on coated IGF-II, detected with HRP anti-human Fc antibody.
Assay [11] deals with high affinity receptor for IgG on U937 cells (UniProt P12314). Briefly: flow cytometry on U937 cells, FITC anti-human Fc.
Assay [12] has as its target human insulin-like growth factor II (IGF-II) (human) (UniProt P01344). Briefly: ELISA, serial dilutions of IgG on coated IGF-II, detected with HRP anti-human Fc antibody.
Assay [13] has the same target. Briefly: ELISA on coated IGF-II after incubation of the antibody with an equal volume of human serum at 37 C for 0 to 9 days.

Amino acid sequences for entries named in this document (tags omitted). A change or cut given only in a name is not applied to a line headed by its entry. Residues count along the entry.
UniProt P01344: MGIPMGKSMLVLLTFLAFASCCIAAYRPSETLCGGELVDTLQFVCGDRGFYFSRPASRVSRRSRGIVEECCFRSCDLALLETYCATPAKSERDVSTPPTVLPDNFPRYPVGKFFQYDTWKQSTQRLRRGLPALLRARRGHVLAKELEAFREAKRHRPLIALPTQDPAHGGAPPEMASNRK
UniProt P02769, residues 25-607: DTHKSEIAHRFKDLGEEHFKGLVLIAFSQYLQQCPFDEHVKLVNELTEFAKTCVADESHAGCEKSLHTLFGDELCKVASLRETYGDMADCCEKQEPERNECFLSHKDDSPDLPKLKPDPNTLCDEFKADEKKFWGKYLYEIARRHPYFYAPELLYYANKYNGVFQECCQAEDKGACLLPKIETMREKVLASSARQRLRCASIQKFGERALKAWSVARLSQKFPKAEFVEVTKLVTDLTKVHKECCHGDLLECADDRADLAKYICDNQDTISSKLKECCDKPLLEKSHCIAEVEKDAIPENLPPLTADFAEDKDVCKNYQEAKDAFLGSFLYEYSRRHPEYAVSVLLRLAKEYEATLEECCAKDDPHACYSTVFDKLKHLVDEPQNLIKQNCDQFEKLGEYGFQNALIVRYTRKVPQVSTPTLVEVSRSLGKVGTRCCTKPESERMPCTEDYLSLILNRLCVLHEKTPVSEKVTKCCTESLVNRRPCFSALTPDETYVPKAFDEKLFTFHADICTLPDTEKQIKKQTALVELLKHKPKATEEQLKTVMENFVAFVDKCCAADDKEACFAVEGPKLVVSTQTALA
UniProt P12314, residues 16-374: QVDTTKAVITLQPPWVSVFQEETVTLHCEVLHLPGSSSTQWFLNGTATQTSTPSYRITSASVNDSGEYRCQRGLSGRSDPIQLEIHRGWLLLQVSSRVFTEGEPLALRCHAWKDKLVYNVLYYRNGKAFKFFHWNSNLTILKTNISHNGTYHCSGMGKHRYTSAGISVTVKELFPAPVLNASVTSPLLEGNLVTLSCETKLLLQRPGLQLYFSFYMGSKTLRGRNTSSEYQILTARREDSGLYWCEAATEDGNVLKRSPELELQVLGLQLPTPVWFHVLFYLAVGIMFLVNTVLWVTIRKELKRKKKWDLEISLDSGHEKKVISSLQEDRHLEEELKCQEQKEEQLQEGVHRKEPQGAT

These are yes or no findings as the source states them, for the method shown. Some entries that bind do so weakly or less than the wild type.

B1: IgG1 m708.5 (antibody, V domains shown)
VH: QVQLQQLGAEVKMPGSSVKVSCKASGGTFSSYAISWVRQAPGQGLEWMGGIIPTLGIVKYAQKFQGRVTITADKSTSTAYMELSSLGSEDTAVYYCAGGPRGYSYNFDNWGQGTLVTVSS
VL: DIQMTQSPSSLSASVGDRVTIVCRASQTISRYVNWYQQKPGKAPKLLIYAASSLQSGVSSRFSGSGSGTEFALTISSLQPEDFATYFCQQTYSPPITFGQGTRLEIKQ
With B1, the binding entry in [1], in [2], in assay [3], in [4], in assay [5] and in assay [6] was “binds” each time. The binding entry in assay [7] was “binds”; with BSA (bovine), “no binding (tested: 10 nM)”; in assay [8], “binds”; in [9] it was “binds”; in assay [10], “binds”; in assay [11], “binds”. Besides, the binding result in assay [12] and in assay [13] was “binds” each time.

The record behind these values is US20160024199A1.
